In patent US20130052670A1:
Results are given in words; binding and its absence hold for the method and conditions named. Some entries that bind do so weakly or less than the wild type.

Protein sequences, listed by entry. Tags and fused reporters are not part of them. Residues count along the entry.
Aβ oligomers (ADDLs, amyloid-β derived diffusible ligands) prepared from Aβ42 (P05067, residues 672-713): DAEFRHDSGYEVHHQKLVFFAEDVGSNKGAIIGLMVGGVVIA
Aβ40 monomer (amyloid β peptide 1-40) (P05067, residues 672-711): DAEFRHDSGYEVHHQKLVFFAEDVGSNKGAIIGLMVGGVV

Assays:
[1] = molecular target: Aβ oligomers (ADDLs, amyloid-β derived diffusible ligands) prepared from Aβ42 (UniProt P05067); assay: competitive binding ELISA with Aβ oligomers and Aβ monomer
[2] = molecular target: Aβ oligomers (ADDLs, amyloid-β derived diffusible ligands) prepared from Aβ42 (UniProt P05067); assay: target engagement sandwich ELISA, complexes formed ex vivo in human CSF or casein buffer
[3] = molecular target: Aβ oligomers (ADDLs, amyloid-β derived diffusible ligands) prepared from Aβ42 (UniProt P05067); assay: ELISA (FIGS. 1A-1C)
[4] = molecular target: Aβ40 monomer (amyloid β peptide 1-40) (UniProt P05067); assay: one-sided ELISA on coated plates
[5] = molecular target: Aβ oligomers (ADDLs, amyloid-β derived diffusible ligands) prepared from Aβ42 (UniProt P05067); assay: one-sided ELISA on coated plates

binding [1]: binds
binding [2]: binds
binding [3]: binds
binding [4]: binds
binding [5]: binds
B1: anti-Aβ oligomer antibody 19.3 (antibody, V domains shown)
VH: EVQLVESGGGLVQPGGSLRLSCAASGFTFSSFGMHWVRQAPGKGLEWVAYISRGSSTIYYADTVKGRFTISRDNAKNSLYLQMNSLRAEDTAVYYCARGITTALDYWGQGTLVTVSS
VL: DVVMTQSPLSLPVTPGEPASISCRSSQSIVHSNGNTYLEWYLQKPGQSPQLLIYKASNRFSGVPDRFSGSGSGTDFTLKISRVEAEDVGVYYCFQGSRLGPSFGQGTKLEIK
